Reference: publication PMC3307762
Results are given in words; binding and its absence hold for the method and conditions named. In cells and extracts the contact can be indirect. Binding calls can cover weak binding; strength is not graded here. Where a sequence is shown, tags or fusion partners need not be part of it.

Target: T1, HA-necdin (in PC12 cells) (mouse) (UniProt P25233)
T1 sequence: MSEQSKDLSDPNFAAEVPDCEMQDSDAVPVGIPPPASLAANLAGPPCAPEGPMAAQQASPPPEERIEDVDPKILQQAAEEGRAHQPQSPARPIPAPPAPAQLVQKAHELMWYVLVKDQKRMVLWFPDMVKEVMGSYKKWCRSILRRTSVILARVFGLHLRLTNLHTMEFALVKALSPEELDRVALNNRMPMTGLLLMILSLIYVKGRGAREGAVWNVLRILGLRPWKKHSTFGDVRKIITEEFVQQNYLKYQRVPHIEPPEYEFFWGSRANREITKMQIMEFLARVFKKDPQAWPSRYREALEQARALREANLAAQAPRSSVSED
Test: co-IP; anti-HA i.p. of HA-necdin from transfected PC12 cells, 1 mg total lysate, Western blot for transportin-1; cells with or without 150 ng/ml NGF for 2 hr in serum-free DMEM

binding: binds
Substance: transportin 1 (in PC12 cells) (rat (endogenous in PC12))
